Some entries share one result that the patent states for a list of compounds. Part of at least one peptide drawing is inferred or uncertain, most often the ends. Non-standard residues stand in square brackets, D forms with d. Residues, ends and D or L forms follow the SMILES beside them. Bip = N[C@@H](Cc1ccc(-c2ccccc2)cc1)C(=O)O; Dip = N[C@H](C(=O)O)C(c1ccccc1)c1ccccc1; 2Nal = N[C@@H](Cc1ccc2ccccc2c1)C(=O)O
test system: human fibroblast cells (HFW); test: MTT cytotoxicity on human fibroblast cells; format: cell-based; details: at 100 µg/ml; cell type not named in the sentence (FIG. 2: HFW)

Row | Compound | cell death
1 | CC(=O)N[C@@H](C)C(=O)N[C@@H](CCCCN)C(=O)N[C@@H](CCCNC(=N)N)C(=O)N[C@@H](Cc1ccc(-c2ccccc2)cc1)C(=O)N[C@@H](Cc1ccc(-c2ccccc2)cc1)C(=O)NCC(=O)N[C@@H](Cc1ccc(O)cc1)C(=O)N[C@@H](CCCCN)C(=O)N[C@@H](CCCNC(=N)N)C(=O)N[C@@H](CCCCN)C(=O)N[C@@H](Cc1ccccc1)C(=O)N[C@@H](Cc1ccc(-c2ccccc2)cc1)C(N)=O [SEQ ID NO:4, Ac-AKR Bip Bip GYKRKF Bip-NH2] (Ac-AKR[Bip][Bip]GYKRKF[Bip]-NH2) | less than 10%
2 | CC(=O)N[C@@H](C)C(=O)N[C@@H](CCCCN)C(=O)N[C@@H](CCCNC(=N)N)C(=O)N[C@@H](Cc1ccc2ccccc2c1)C(=O)N[C@@H](Cc1ccc2ccccc2c1)C(=O)NCC(=O)N[C@@H](Cc1ccc(O)cc1)C(=O)N[C@@H](CCCCN)C(=O)N[C@@H](CCCNC(=N)N)C(=O)N[C@@H](CCCCN)C(=O)N[C@@H](Cc1ccccc1)C(=O)N[C@@H](Cc1ccc2ccccc2c1)C(N)=O [SEQ ID NO:3, Ac-AKR Nal Nal GYKRKFNal-NH2] (Ac-AKR[2Nal][2Nal]GYKRKF[2Nal]-NH2) | less than 10%
3 | CC(=O)N[C@@H](C)C(=O)N[C@@H](CCCCN)C(=O)N[C@@H](CCCNC(=N)N)C(=O)N[C@H](C(=O)N[C@H](C(=O)NCC(=O)N[C@@H](Cc1ccc(O)cc1)C(=O)N[C@@H](CCCCN)C(=O)N[C@@H](CCCNC(=N)N)C(=O)N[C@@H](CCCCN)C(=O)N[C@@H](Cc1ccccc1)C(=O)N[C@H](C(N)=O)C(c1ccccc1)c1ccccc1)C(c1ccccc1)c1ccccc1)C(c1ccccc1)c1ccccc1 [SEQ ID NO: 5, Ac-AKR Dip Dip GYKRKFDip-NH2] (Ac-AKR[Dip][Dip]GYKRKF[Dip]-NH2) | less than 10%
